Results on 105 sequences are retold here after PubChem BioAssay AID1347423 (Functional Genomics Laboratory (NCATS/FGL), 2020).

Screen size: about 52,000 sequences; about 210 (0.4%) were called active.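 Rule for the calls: active = gene whose silencing raises cell survival under the drug, median off-target-corrected z-score across its silencing RNAs 2 or more; inactive = the rest.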 The list shows a part of the results.

The assay in a line: Resistance to Poly (ADP-Ribose) Polymerase inhibitor: Gene Identification via Genome-wide siRNA Screen. The conditions noted are these: mouse BRCA2 R2336H ES cells, olaparib, CellTiter-Glo viability; stronger effect = higher value. Put shortly:
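Mouse BRCA2 R2336H ES cells were reverse-transfected with siRNA (20 nM final), treated at 48 h with 500 nM olaparib, and read by CellTiter-Glo after 72 h. Scores: MAD-based z per siRNA, median per gene, seed off-target correction.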
As to GGAUAGCAUCCAUUACUUCTT against AI646023, the z-score is inactive: 0.922.

In the case of GGAAGAAGUACUCCAACUCTT against Eps8l2, the z-score is inactive: 0.195.

As for GGUGACUGGUAAAUGCCAGTT against Olfr1502, the z-score was inactive: 0.169.

Turning to “GGAGAAUGGUUCAUAUCUGTT against 2310079F23Rik”, the z-score is inactive: 0.566.

On to GCUGAAAUCGAAAACCCGCTT against Atp6v0a1, for which the z-score is inactive: 0.401.

In the case of GGAAGAAACUGAGAAACUGTT against BC049635, the z-score was inactive: -0.323.

As to GGAAGAACGACAAGAACAUTT against Tgfbr2, the z-score is inactive: -0.571.

Consider CGGGUCCUGUGAAGAACUATT against Sf4, for which the z-score was inactive: -1.52.

GGAGAGCAUCAUAUUUGGCTT against Gnb5: the z-score was inactive: 0.948.

For “CGUAUUUCACAAAUACGGATT against 4933406N12Rik”, the z-score is inactive: 0.547.

In the case of GGAAUGGGAUAGAUUUGUUTT against Ung, the z-score is inactive: -2.49.

For GGAGAUCAGCAGUUCAUUUTT against Csprs, the z-score was inactive: -0.615.

Turning to GGAAUCAGCAAUGGACCCUTT against Parn, the z-score was inactive: -1.05.

As to GCUUCUUGAUCCAACUGGATT against Zfyve27, the z-score is inactive: 0.979.

Consider GGUCAUGACAUCAUUGGCGTT against Kcng4, for which the z-score was inactive: 0.719.

For the sequence CGAAGGUCUGUUCGAGAACTT against BC023055, the z-score is inactive: -0.647.

“GGCACUGAAUUCUGUUGCUTT against C730048C13Rik”: the z-score is inactive: -0.12.

In the case of “GCAUCAAGGCAACAAAGAUTT against 2810022L02Rik”, the z-score was inactive: -1.04.

In the case of GGUACAGGUUGAUGCACUUTT against DXImx50e, the z-score was inactive: -1.07.

As to CGCAGGACGAUUAUGACGUTT against Pcdhb12, the z-score is inactive: 1.09.

GGACCAGAAACCGUGAUAATT against Immp2l: the z-score is inactive: 1.56.

GACCUGAAUAAAGACUGUCTT against Cort: the z-score is inactive: 0.702.

As to “CCUUAUAAUUGACACUGAUTT against 4930584N22Rik”, the z-score was inactive: 1.11.

Take CGGAGUGAAACUACUCAUUTT against Ckb: the z-score was inactive: 0.411.

GCUUACAGAUCAACUGAAGTT against Chst9: the z-score was inactive: -0.614.

Turning to GGGCAAUUCCAUGAAGCUGTT against Scn3b, the z-score was inactive: 2.09.

For the sequence “GCAAUGGACCCAACUCAAGTT against 2810032G03Rik”, the z-score was inactive: 0.773.

As to GGGCAAACAUUAUAAAUUGTT against Prlpc2, the z-score is inactive: 1.64.

For GGAGAACACCAUCAGGUUUTT against Tnfrsf14, the z-score was inactive: -1.81.

With GCUCAUUCGUCCUCACAGUTT against Olfr312, the z-score is inactive: 0.408.

Consider GCGAGUGCUAACAUGAAAGTT against Sara1, for which the z-score was inactive: -0.143.

Take “GGAAACAAUACACCAAAUGTT against B630005N14Rik”: the z-score was inactive: -0.0892.

Take CCAAGUUACAGGAACAAGUTT against Olfr1504: the z-score is inactive: -0.887.

Regarding GCUGAUAGACUCACAGAGGTT against Midn, the z-score is inactive: 0.755.

As for GGGAAUCUGGAGUGUCUGATT against Uaca, the z-score was inactive: 1.13.

Turning to GCACUGAUGACGUGCAGAUTT against Rps5, the z-score was inactive: -3.23.

For GGCACAAGCAGGAGAUAAATT against Serpinb2, the z-score was inactive: -0.628.

On to GGUAGGACUAACAAUAAAATT against Gpr4, for which the z-score is inactive: 0.144.

Regarding GAACAGCAGAAUCUCGGCUTT against Cacng6, the z-score was inactive: 2.9.

Turning to CCAUCAUUUAUGAAGACCCTT against Wdr68, the z-score is inactive: -0.231.

With GGCUCCUACCAAUCUCACUTT against Calcr, the z-score is inactive: 0.374.

GGCCUGAAGCAGCUUAUCUTT against Chad: the z-score is inactive: 0.508.

For the sequence CCAUAACGUAAGGCAUAUATT against Ghsr, the z-score is inactive: -1.15.

Take UUGCCUCUUCCUACGCCUUTT against Lass1: the z-score was inactive: -2.37.

Consider CCCUUUAGAGGAAGUGAUATT against Gatm, for which the z-score is inactive: -0.34.

In the case of “GGCAGAAGUGGAAAAACAATT against 4930403O06Rik”, the z-score is inactive: -1.56.

Turning to “GGUUUGGAGGGACGCAAUATT against 2900005J15Rik”, the z-score is inactive: -1.49.

Turning to CCAUCUAUCAACUUCUACATT against Sat1, the z-score was inactive: 1.09.

In the case of GCCACAAUGCUAGAAGAGATT against Apex2, the z-score is inactive: -0.349.

As to GGACCUAGACGAUGUCAUGTT against Lrrc4b, the z-score was inactive: 1.9.

Regarding GGAAGAAGCCUUUCAGCAUTT against Cenpa, the z-score is inactive: -0.274.

With AGUGCGACAAGGAGGUGUATT against Crip1, the z-score is inactive: -0.837.

As for GGAAGAAUUACAAAGGAUATT against Cnot4, the z-score is inactive: 0.658.

In the case of GGAUCUUGGGUUGAUAUUUTT against Acsl4, the z-score is inactive: -1.88.

CGUUCUACAACAAAUGGCUTT against Slc35c2: the z-score was inactive: 0.549.

With GCCUUUACCCAAAUUAUCATT against Defb4, the z-score is inactive: 0.42.

Consider GGCAGGUGUGGCUUUCUUCTT against Gpsm1, for which the z-score was inactive: 1.01.

For GGAACUUAUCCUUCAUGGATT against Olfr714, the z-score was inactive: 0.467.

In the case of GAAACUAUGGCUGAAAAUGTT against Klk6, the z-score is inactive: -0.0594.

GCCUUACAAUUUGUUCUACTT against Dsc1: the z-score was inactive: 1.9.

Take GCCUUUCUCAUUAGUCUCUTT against V1rb9: the z-score was inactive: 1.16.

Take GGUCAAAACCAUCUACCGCTT against Rab3a: the z-score was inactive: 0.000379.

Consider GGUAACUCCAUACUAUAAUTT against Pcdhb4, for which the z-score is inactive: -0.186.

With GGAGGAUUAGAACGGACCUTT against Nol5a, the z-score was inactive: -0.363.

For the sequence GCCAUUGGUACCAUAACAUTT against Tekt3, the z-score was inactive: -0.64.

For “GGCCGUCACUGCCAAUAGUTT against D330014H01Rik”, the z-score is inactive: 0.787.

As for GCUACUUAAAUACAUCCGCTT against Pdpk1, the z-score is inactive: -0.00261.

Take GGAGCCUUUACCAUUGACUTT against Osmr: the z-score was inactive: -0.827.

Regarding GGAAAAGAAGUUUAAACGGTT against Svs6, the z-score is inactive: 0.979.

For the sequence CCCGAUUAUCUAGUGAUACTT against Sbk, the z-score is inactive: -0.0364.

Turning to GGAUGUCAUCGAGGAAUACTT against Rps12, the z-score is inactive: -2.66.

GGAUGGCAUAGUUCUUGGATT against Psmb7: the z-score is inactive: -3.43.

Regarding GGAAUCCUUUUCUUUCUAATT against Slc13a1, the z-score was inactive: -1.87.

On to “GGAAAACUUUAGCUACAAATT against 8430415E04Rik”, for which the z-score is inactive: 0.821.

On to GGAGCUAAGACAGUUUGGATT against BC022133, for which the z-score is inactive: -1.16.

GGGCUGACUACCUUGUCAUTT against Mad2l2: the z-score was inactive: -0.798.

Consider GGUUCUUAUCACUUGCUGUTT against Arf6, for which the z-score is inactive: 2.83.

Take CCAAAGAGCGCAUGGCUCATT against Epn2: the z-score was inactive: 0.235.

As to GGUCAUCUCAGUACUACAATT against Dgat2, the z-score is inactive: -1.18.

For GCUCUGUCUUCAGGUCAUUTT against Olfr1040, the z-score is inactive: -1.7.

Take CGAGGUAAACAGUUUCGUUTT against BC051142: the z-score is inactive: 0.568.

In the case of “GAAGAGCGGGUGUUGCUAATT against E130113K08Rik”, the z-score is inactive: -1.65.

Turning to CCUCCAGUACCAACAUUAGTT against Olfr299, the z-score is inactive: 0.407.

With GGCAAGAAACAGGAGAAGATT against Ptn, the z-score was inactive: -0.789.

In the case of GGAUUCUCUAAUAAAGCGUTT against Pof1b, the z-score was inactive: 0.894.

As for GGUUUUAGAAGGGAAACAUTT against Ppp2r2c, the z-score is inactive: -0.761.

On to “GGUUAAGCAGAAAUUAAGATT against D3Ertd300e”, for which the z-score is inactive: -0.0197.

As for GGAUCAAGCAGAAAGGAGATT against Otc, the z-score is inactive: 0.0892.

Consider GGUAGUGACGAAAAAUAACTT against Pigt, for which the z-score was inactive: 1.

In the case of GCUGAGGCAAUUUCAACUUTT against Ctla4, the z-score is inactive: 0.608.

For the sequence GGAGGACUUUGGAUUUAAGTT against Prim1, the z-score is inactive: 1.09.

Turning to “GGCAAGUCCAUGGUCAUGUTT against 1500002O20Rik”, the z-score was inactive: -0.871.

As for UUAGCCGAAAGGGCUUAACTT against Olfr1032, the z-score is inactive: 0.496.

Consider GCUUGUGUUUUAGAGCCGCTT against Mat1a, for which the z-score is inactive: -0.355.

Consider GAAUGUAUGGUGAUCAAAGTT against Pip, for which the z-score is inactive: 1.17.

Turning to “GCUUGUUGCCUAGGACCUATT against 2010003J03Rik”, the z-score was inactive: -1.48.

Turning to GGACCUGUUGAUAUUGGCCTT against Atp5j, the z-score is inactive: 0.146.

On to “GCUAAUAUAGAGUAUCUGUTT against D230005D02Rik”, for which the z-score is inactive: 0.758.

Take “GGAGAUCGACCUGUCUAUGTT against D030051D21”: the z-score is inactive: -1.44.

For the sequence GGUCCUAAAUGCUCAGAAGTT against Rnf167, the z-score was inactive: 1.03.

For GGAUUCGGAAAUAUUGCCATT against Fgb, the z-score is inactive: -2.03.

Regarding GGAGGUACCACAAAAGGCATT against Kif2c, the z-score is inactive: -0.582.

For the sequence GCAUGACCUCAGGUUUUCUTT against Fndc6, the z-score is inactive: 0.775.

Regarding GGUGAAACUGAGAAUCAUGTT against Mcpt4, the z-score was inactive: 0.517.

On to GGCCUUUCUUUUGUAAUUUTT against Zfp57, for which the z-score was inactive: 0.562.
